Experimental data published in the supplement of paper PMC10849652.
This is one part of the list.

Protein sequences, listed by entry. Tags and fused reporters are not part of them. Lines headed by an entry give the natural chain unless they say otherwise; changes in a name come on top.
UniProt Q96S16: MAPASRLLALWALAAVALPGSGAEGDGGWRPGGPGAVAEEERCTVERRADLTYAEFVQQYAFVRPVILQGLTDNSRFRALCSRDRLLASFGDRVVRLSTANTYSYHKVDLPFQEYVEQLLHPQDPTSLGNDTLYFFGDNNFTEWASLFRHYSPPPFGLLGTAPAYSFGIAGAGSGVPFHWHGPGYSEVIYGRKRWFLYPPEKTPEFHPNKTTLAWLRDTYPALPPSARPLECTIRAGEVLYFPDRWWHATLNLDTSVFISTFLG
UniProt Q8WYB5, whole entry, looked up: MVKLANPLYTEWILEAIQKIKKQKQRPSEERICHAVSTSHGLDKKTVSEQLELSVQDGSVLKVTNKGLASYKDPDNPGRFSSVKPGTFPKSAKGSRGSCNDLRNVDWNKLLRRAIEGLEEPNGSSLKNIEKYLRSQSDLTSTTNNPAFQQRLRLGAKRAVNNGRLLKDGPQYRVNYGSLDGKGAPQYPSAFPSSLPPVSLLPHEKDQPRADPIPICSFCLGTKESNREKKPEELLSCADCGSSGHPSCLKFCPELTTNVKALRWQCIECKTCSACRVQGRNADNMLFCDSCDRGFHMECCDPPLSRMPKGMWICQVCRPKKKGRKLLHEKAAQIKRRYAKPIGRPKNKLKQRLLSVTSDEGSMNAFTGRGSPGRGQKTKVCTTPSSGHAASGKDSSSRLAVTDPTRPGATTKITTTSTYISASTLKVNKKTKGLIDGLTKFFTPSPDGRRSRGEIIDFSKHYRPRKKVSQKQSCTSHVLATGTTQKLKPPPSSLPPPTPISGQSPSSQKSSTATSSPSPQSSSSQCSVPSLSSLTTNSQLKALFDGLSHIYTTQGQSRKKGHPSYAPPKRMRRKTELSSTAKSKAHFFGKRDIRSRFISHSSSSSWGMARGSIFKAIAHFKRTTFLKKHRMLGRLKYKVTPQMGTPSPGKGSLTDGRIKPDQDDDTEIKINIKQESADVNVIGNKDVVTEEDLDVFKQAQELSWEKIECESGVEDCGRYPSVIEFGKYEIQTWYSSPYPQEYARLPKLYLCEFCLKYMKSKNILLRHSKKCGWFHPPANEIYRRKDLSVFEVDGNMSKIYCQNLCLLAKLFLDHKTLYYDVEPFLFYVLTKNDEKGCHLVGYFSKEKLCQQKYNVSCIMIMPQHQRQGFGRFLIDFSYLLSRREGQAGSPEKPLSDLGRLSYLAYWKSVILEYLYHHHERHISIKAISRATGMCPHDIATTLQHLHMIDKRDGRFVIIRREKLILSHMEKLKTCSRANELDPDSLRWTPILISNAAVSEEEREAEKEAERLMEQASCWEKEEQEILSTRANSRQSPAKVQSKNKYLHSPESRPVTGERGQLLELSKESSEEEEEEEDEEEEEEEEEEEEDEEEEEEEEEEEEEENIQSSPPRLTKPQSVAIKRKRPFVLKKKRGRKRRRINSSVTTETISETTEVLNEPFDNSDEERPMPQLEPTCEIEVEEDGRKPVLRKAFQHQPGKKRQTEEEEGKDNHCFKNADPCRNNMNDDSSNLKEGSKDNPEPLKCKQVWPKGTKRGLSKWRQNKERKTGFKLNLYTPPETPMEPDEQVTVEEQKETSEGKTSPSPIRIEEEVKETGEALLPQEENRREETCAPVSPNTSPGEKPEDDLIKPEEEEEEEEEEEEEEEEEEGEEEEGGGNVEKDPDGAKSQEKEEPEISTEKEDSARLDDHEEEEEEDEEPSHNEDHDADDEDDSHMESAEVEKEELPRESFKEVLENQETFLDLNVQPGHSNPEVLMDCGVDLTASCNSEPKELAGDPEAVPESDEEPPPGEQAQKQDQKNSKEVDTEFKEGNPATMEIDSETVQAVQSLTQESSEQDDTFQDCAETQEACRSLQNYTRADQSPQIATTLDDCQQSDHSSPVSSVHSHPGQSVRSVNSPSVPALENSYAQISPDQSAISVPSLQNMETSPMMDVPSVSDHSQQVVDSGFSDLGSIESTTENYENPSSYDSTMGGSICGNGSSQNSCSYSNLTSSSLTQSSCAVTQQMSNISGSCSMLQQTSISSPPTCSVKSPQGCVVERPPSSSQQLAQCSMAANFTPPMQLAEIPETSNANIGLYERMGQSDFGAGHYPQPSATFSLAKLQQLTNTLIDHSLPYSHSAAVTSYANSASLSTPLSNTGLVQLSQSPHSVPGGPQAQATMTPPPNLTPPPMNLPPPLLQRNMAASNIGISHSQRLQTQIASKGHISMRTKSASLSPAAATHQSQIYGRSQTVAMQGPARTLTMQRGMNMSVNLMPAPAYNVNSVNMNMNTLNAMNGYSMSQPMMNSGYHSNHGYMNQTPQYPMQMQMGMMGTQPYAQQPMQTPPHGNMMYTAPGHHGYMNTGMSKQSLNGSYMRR
UniProt Q1ED39: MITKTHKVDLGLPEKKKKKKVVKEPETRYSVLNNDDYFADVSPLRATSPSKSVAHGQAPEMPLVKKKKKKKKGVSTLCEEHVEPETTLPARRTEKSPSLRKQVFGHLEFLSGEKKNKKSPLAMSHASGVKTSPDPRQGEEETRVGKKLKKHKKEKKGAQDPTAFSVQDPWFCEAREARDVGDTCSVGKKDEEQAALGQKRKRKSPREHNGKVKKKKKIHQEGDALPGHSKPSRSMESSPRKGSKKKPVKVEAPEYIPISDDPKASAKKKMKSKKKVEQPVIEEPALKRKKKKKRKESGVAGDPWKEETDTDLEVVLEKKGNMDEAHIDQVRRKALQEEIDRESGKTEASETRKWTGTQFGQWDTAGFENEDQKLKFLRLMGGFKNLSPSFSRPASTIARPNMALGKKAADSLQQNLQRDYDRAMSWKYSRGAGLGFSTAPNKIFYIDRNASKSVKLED
UniProt Q9Y2U9: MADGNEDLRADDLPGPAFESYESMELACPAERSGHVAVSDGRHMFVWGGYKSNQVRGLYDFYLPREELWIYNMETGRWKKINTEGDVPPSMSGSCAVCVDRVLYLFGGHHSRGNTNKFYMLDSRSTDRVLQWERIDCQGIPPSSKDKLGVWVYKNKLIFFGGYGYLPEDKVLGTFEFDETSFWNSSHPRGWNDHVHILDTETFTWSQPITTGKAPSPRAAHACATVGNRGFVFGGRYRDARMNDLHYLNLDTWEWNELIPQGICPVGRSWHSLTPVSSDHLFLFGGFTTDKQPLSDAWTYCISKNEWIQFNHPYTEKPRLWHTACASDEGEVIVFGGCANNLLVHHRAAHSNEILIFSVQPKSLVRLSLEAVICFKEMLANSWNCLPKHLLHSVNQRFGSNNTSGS
UniProt O15550, whole entry, looked up: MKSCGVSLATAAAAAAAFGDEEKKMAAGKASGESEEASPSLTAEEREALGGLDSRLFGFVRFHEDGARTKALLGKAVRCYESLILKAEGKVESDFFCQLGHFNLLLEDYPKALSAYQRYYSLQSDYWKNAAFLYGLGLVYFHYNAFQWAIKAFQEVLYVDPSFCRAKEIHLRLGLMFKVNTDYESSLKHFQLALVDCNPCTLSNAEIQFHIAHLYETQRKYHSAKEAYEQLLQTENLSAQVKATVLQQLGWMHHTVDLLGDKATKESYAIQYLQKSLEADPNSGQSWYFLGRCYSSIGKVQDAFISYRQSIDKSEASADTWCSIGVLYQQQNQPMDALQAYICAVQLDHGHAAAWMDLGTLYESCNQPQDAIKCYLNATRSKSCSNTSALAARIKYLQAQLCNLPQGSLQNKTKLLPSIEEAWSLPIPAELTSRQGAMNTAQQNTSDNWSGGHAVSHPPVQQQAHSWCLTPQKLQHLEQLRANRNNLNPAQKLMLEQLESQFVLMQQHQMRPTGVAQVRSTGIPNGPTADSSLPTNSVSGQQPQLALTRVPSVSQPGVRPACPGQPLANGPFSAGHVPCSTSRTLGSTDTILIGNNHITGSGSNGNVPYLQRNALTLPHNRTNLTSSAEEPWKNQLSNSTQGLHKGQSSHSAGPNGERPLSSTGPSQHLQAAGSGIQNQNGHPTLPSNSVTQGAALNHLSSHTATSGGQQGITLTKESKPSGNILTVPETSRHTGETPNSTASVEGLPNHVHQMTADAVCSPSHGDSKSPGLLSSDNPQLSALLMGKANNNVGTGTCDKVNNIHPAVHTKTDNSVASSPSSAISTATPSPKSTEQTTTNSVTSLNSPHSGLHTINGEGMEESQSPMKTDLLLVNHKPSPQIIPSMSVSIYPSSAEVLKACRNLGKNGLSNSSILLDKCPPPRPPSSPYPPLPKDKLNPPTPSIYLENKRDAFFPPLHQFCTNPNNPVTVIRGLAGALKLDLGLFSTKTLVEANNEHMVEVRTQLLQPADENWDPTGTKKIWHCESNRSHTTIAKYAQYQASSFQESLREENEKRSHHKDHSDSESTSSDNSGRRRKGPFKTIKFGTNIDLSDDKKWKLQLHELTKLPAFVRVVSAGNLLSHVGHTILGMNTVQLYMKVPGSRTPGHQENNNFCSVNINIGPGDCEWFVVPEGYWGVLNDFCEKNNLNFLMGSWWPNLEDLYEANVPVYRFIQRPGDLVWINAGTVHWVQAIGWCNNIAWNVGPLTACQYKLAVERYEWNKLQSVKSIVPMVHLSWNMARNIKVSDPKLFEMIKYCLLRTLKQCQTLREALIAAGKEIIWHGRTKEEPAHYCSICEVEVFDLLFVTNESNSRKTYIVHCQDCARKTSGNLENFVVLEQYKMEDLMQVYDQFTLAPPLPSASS
UniProt O43731: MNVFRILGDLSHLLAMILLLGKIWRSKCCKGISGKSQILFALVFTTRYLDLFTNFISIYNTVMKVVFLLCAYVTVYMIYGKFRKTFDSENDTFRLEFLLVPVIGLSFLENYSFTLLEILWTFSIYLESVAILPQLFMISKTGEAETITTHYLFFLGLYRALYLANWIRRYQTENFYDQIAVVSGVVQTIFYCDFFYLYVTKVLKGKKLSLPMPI
UniProt Q9NZM3: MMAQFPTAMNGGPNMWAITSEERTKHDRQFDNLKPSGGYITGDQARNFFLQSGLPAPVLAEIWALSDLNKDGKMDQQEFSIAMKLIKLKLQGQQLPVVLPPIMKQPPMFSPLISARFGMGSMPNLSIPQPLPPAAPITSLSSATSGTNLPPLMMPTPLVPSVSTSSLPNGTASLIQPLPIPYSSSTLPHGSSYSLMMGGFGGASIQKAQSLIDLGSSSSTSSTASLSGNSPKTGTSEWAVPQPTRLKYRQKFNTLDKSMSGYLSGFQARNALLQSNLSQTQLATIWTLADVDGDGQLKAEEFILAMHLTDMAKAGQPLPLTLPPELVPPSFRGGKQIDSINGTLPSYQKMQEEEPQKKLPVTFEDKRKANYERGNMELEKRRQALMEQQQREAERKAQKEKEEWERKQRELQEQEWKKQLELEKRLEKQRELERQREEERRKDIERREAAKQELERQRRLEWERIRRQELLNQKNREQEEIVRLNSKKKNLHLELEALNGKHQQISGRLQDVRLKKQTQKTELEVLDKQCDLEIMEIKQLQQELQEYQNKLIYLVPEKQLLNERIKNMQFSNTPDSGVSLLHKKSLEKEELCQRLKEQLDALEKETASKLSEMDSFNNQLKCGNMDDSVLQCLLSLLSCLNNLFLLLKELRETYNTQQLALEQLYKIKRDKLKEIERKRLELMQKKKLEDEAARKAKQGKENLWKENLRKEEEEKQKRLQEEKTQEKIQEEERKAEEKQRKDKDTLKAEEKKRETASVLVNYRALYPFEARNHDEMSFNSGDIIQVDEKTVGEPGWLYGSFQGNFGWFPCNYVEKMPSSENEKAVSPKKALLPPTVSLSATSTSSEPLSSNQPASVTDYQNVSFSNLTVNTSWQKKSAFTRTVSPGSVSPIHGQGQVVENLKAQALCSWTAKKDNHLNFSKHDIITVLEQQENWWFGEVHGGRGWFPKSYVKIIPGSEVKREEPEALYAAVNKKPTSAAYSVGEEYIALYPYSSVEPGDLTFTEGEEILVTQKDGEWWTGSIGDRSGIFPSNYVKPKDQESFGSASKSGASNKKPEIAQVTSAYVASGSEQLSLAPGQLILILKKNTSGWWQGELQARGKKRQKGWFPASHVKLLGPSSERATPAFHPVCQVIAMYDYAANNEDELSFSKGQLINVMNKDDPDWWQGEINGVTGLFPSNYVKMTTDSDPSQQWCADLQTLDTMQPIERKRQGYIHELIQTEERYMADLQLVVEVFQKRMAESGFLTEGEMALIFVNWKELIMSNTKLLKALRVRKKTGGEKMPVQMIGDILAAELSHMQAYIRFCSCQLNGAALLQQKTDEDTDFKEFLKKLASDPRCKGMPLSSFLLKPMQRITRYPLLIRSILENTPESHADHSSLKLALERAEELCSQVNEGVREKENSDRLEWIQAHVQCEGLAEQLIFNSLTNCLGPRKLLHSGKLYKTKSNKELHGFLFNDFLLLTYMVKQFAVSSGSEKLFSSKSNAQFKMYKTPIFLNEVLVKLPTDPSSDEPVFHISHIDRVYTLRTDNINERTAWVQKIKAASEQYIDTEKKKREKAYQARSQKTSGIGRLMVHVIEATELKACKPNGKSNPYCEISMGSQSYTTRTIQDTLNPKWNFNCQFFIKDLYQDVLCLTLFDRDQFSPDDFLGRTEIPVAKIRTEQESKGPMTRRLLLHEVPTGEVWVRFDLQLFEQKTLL

Experiments:
Assay in all cases: log2 fold change, soluble protein after heating vs DMSO (PISA); higher = thermal stabilisation; K562 cells, 10 uM, 30 min; active = over 0.2 and 3.5 SD of the protein, either way, in both replicates (recomputed)
[1] = compound: CS(=O)(=O)c1ccc(-c2cnc(N)c(C(=O)Nc3ccccc3)n2)cc1
Outline: (§1)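 Thermal stability values are relative to control samples and come from duplicates. They are expressed as log2 fold changes. For measurement, K562 cells (2×10^6 cells/mL) received 10 μM compound for 30 min, and aliquots were heated for 3 min over 48°C-58°C, pooled, and extracted at 4°C in PBS with 0.5% NP-40. Soluble protein, the supernatant after 21,000xg for 90 min, was quantified by TMTpro 16plex LC-MS/MS with equalised channel sums.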

crizotinib = compound: C[C@@H](Oc1cc(-c2cnn(C3CCNCC3)c2)cnc1N)c1c(Cl)ccc(F)c1Cl [crizotinib]
Outline: as §1

duvelisib = compound: C[C@H](Nc1ncnc2nc[nH]c12)c1cc2cccc(Cl)c2c(=O)n1-c1ccccc1 [duvelisib]
Outline: as §1

gandotinib = compound: Cc1cc(Nc2cc(CN3CCOCC3)c3nc(C)c(Cc4ccc(Cl)cc4F)n3n2)n[nH]1 [gandotinib]
Outline: as §1

tozasertib = compound: Cc1cc(Nc2cc(N3CCN(C)CC3)nc(Sc3ccc(NC(=O)C4CC4)cc3)n2)n[nH]1 [tozasertib]
Outline: as §1

[2] = compound: Cc1cc(SCc2sc(-c3ccc(C(F)(F)F)cc3)nc2C)ccc1OCC(=O)O
Outline: as §1

doramapimod = compound: Cc1ccc(-n2nc(C(C)(C)C)cc2NC(=O)Nc2ccc(OCCN3CCOCC3)c3ccccc23)cc1 [doramapimod]
Outline: as §1

bafetinib = compound: Cc1ccc(NC(=O)c2ccc(CN3CC[C@H](N(C)C)C3)c(C(F)(F)F)c2)cc1Nc1nccc(-c2cncnc2)n1 [bafetinib]
Outline: as §1

[3] = compound: Cc1cccc(CC(=O)N2CCc3c2ccc(-c2cn(C)c4ncnc(N)c24)c3F)n1
Outline: as §1

nilotinib = compound: Cc1cn(-c2cc(NC(=O)c3ccc(C)c(Nc4nccc(-c5cccnc5)n4)c3)cc(C(F)(F)F)c2)cn1 [nilotinib]
Outline: as §1

[4] = compound: Cc1nc(Nc2n[nH]c3c2CN(C(=O)N[C@H](CN(C)C)c2ccccc2)C3(C)C)c2sccc2n1
Outline: as §1

dasatinib = compound: Cc1nc(Nc2ncc(C(=O)Nc3c(C)cccc3Cl)s2)cc(N2CCN(CCO)CC2)n1 [dasatinib]
Outline: as §1

[5] = compound: Cc1ncc(-c2ccnc(Nc3ccc(S(C)(=O)=O)cc3)n2)n1C(C)C
Outline: as §1

tipifarnib = compound: Cn1cncc1[C@@](N)(c1ccc(Cl)cc1)c1ccc2c(c1)c(-c1cccc(Cl)c1)cc(=O)n2C [tipifarnib]
Outline: as §1

mubritinib = compound: FC(F)(F)c1ccc(/C=C/c2nc(COc3ccc(CCCCn4ccnn4)cc3)co2)cc1 [mubritinib]
Outline: as §1

[6] = compound: C[C@@H]1COCCN1C2=NC(=NC(=C2)C3(CC3)S(=O)(=O)C)C4=C5C=CNC5=CC=C4
Outline: as §1

ispinesib = compound: Cc1ccc(C(=O)N(CCCN)[C@@H](c2nc3cc(Cl)ccc3c(=O)n2Cc2ccccc2)C(C)C)cc1 [ispinesib]
Outline: as §1

[7] = compound: Cn1cc(-c2ccc3nnc(C(F)(F)c4ccc5ncccc5c4)n3n2)cn1
Outline: as §1

[8] = compound: C[C@H](C1=CC=C(C=C1)C(=O)NC2=C3C=CNC3=NC=C2)N
Outline: as §1

[9] = compound: Cn1cc(-c2ccc3c(c2)CCN3C(=O)Cc2cccc(C(F)(F)F)c2)c2c(N)ncnc21
Outline: as §1

Measured: log2 fold change

KLF16 (UniProt Q9BXK1)
inactive: [1] -0.063 | crizotinib -0.02 | duvelisib -0.097 | gandotinib 0.071 | tozasertib 0.047 | [2] 0.041 | doramapimod 0.138 | bafetinib 0.058 | [3] -0.098 | nilotinib 0.033 | [4] -0.279 | dasatinib -0.037 | [5] 0.16 | tipifarnib 0.037 | mubritinib -0.041

KIAA1109 (UniProt Q2LD37)
inactive: [1] 0.163 | crizotinib -0.074 | gandotinib -0.003 | doramapimod 0.075 | [3] 0.054

KCTD1 (UniProt Q719H9)
inactive: crizotinib 0.136 | [6] 0.122 | duvelisib 0.323 | tozasertib 0.075 | [2] -0.068 | doramapimod 0.066 | nilotinib 0.111 | [4] -0.116 | dasatinib 0.113 | [5] 0.048

JMJD8 (UniProt Q96S16)
inactive: [1] -0.173 | crizotinib 0.226 | duvelisib 0.066 | [2] 0.228 | doramapimod 0.041 | ispinesib 0.109 | nilotinib 0.065 | [4] 0 | dasatinib -0.004 | [5] 0.142 | [7] -0.195 | tipifarnib 0.038 | mubritinib -0.136

ITSN1 (UniProt Q15811)
inactive: [1] -0.037 | [6] -0.079 | gandotinib 0.126 | [3] -0.059 | tipifarnib 0.062 | mubritinib 0.103

KSR2 (UniProt Q6VAB6)
inactive: [1] 0.177 | [6] -0.041 | gandotinib 0.014 | [3] -0.024

JPT2 isoform 2 (UniProt Q9H910)
inactive: [1] -0.052 | crizotinib -0.083 | tozasertib -0.149 | doramapimod 0.05 | bafetinib -0.041 | nilotinib 0.127 | [4] 0.004 | [5] -0.053 | tipifarnib 0.033 | mubritinib 0.004

KCNH2 (UniProt Q12809)
inactive: crizotinib -0.155 | [6] -0.097 | [8] 0.561 | duvelisib 0.041 | [2] 0.084 | doramapimod 0.163 | bafetinib 0 | dasatinib -0.209 | [9] -0.217 | tipifarnib -0.226 | mubritinib -0.125

JMJD7 (UniProt P0C870)
inactive: [1] -0.15 | [6] 0.061 | duvelisib 0.889 | [2] 0.743 | bafetinib 0.102 | nilotinib -0.048 | [4] -0.024 | dasatinib -0.172 | [5] 0

KAT7 (UniProt O95251)
inactive: [1] 0.286 | crizotinib 0.063 | doramapimod -0.029 | ispinesib 0.014 | bafetinib -0.095 | nilotinib 0.105 | [4] 0.059 | [5] 0.001 | [7] -0.014 | tipifarnib 0.058 | mubritinib 0.113

KMT2A isoform 3 (UniProt Q03164)
inactive: [1] -0.04 | [8] -0.119 | duvelisib -0.068 | gandotinib -0.483 | [2] 0.091 | ispinesib -0.016 | [3] 0.01 | dasatinib -0.112 | [9] 0.122 | [7] -0.034

KAT6B (UniProt Q8WYB5)
inactive: gandotinib 0.05 | tozasertib 0.01 | ispinesib -0.005 | bafetinib -0.02 | [3] -0.026 | nilotinib -0.083 | [4] 0.034 | [5] -0.042 | [7] -0.01 | tipifarnib 0.112 | mubritinib 0.03

KLHL42 (UniProt Q9P2K6)
inactive: [6] 0.005 | [8] 0.091 | duvelisib 0.029 | tozasertib -0.236 | [2] 0.05 | bafetinib -0.281 | dasatinib -0.113 | [9] 0.117 | tipifarnib 0.069

KNOP1 (UniProt Q1ED39)
inactive: crizotinib -0.155 | [8] 0.327 | duvelisib -0.179 | gandotinib 0.002 | tozasertib 0.011 | [2] -0.108 | doramapimod 0.201 | ispinesib -0.063 | bafetinib -0.145 | [3] 0.091 | nilotinib 0.138 | [4] -0.07 | dasatinib 0.234 | [5] 0.047 | [9] -0.509 | [7] -0.009 | tipifarnib 0.047 | mubritinib 0.146

KIF16B isoform 2 (UniProt Q96L93)
inactive: [8] 0.187 | duvelisib 0.084 | [2] -0.1 | ispinesib -0.053 | dasatinib 0.19 | [9] 0.019 | [7] -0.006

KIF20A (UniProt O95235)
inactive: [6] 0.104

KLHDC10 (UniProt Q6PID8)
inactive: gandotinib -0.036 | tozasertib 0.033 | [3] 0.06 | tipifarnib 0.063

KRT87P (UniProt A6NCN2)
inactive: bafetinib 1.25

KLHDC2 (UniProt Q9Y2U9)
inactive: nilotinib 0.02 | [4] -0.254 | [5] -0.085

KIF21B (UniProt O75037)
inactive: [6] 0 | duvelisib -0.074 | [2] -0.175 | ispinesib -0.32 | nilotinib -0.019 | [4] 0.127 | dasatinib 0.018 | [5] -0.06 | [7] -0.246

KLHL17 (UniProt Q6TDP4)
inactive: [6] -0.021

KLHL20 (UniProt Q9Y2M5)
inactive: duvelisib -0.47 | gandotinib -0.113 | tozasertib 0.125 | [2] 0.173 | ispinesib 0.039 | [3] 0.169 | nilotinib 0.125 | [4] 0.054 | dasatinib 0.014 | [5] -0.112 | [7] 0.022 | tipifarnib 0.041 | mubritinib 0.1

KDF1 (UniProt Q8NAX2)
inactive: crizotinib 0.004 | [8] 0.005 | duvelisib 0.133 | [2] -0.238 | doramapimod -0.014 | ispinesib 0.121 | dasatinib -0.147 | [9] -0.165 | [7] -0.251

JOSD1 (UniProt Q15040)
inactive: [6] 0.079 | [8] -0.117 | duvelisib 0.168 | [2] 0.042 | dasatinib -0.267 | [9] -0.117

KCTD7 (UniProt Q96MP8)
inactive: duvelisib 0 | gandotinib -0.225 | [2] -0.055 | bafetinib 0.219 | [3] 0.056 | nilotinib -0.024 | [4] -0.153 | dasatinib 0.072 | [5] -0.13 | tipifarnib 0.086 | mubritinib 0.099

KDM6A (UniProt O15550)
inactive: [6] 0.269 | [8] -0.031 | duvelisib 0.047 | [2] 0.207 | ispinesib -0.146 | dasatinib -0.277 | [9] -0.062 | [7] -0.002 | tipifarnib 0.038

KRT10, A0A1B0GVI3
inactive: gandotinib -0.098 | [3] -0.018 | nilotinib -0.059 | [4] -0.042 | [5] -0.037 | mubritinib -0.097

KIAA0040 (UniProt Q15053)
inactive: [8] 0.166 | nilotinib 0.084 | [4] -0.025 | [5] 0.015 | [9] -0.034 | mubritinib -0.016

KDELR3 (UniProt O43731)
inactive: crizotinib 0.059 | duvelisib 0.082 | tozasertib -0.052 | [2] -0.09 | doramapimod -0.07 | bafetinib -0.145 | nilotinib 0.055 | [4] 0.027 | dasatinib 0.309 | [5] 0.08 | mubritinib 0.202

KIFC1 (UniProt Q9BW19)
inactive: [6] 0 | [8] 0.298 | gandotinib 0.027 | ispinesib -0.046 | [3] 0.054 | [9] -0.072 | [7] -0.247 | mubritinib 0.404

KIAA0754 (UniProt O94854)
inactive: [6] 0.078 | [8] 0.121 | duvelisib 0.185 | tozasertib 0.006 | [2] -0.133 | ispinesib -0.284 | bafetinib 0.129 | dasatinib -0.226 | [9] -0.176 | [7] 0.152 | tipifarnib 0.145

KIF20B isoform 2 (UniProt Q96Q89)
inactive: gandotinib 0.12 | ispinesib -0.013 | [3] 0.033 | [7] -0.133

KIF4A (UniProt O95239)
inactive: [8] 0.188 | duvelisib 0.265 | gandotinib 0.031 | tozasertib 0.188 | [2] 0.269 | [3] 0.07 | dasatinib -0.012 | [9] -0.078

KIF21A (UniProt H0YI78)
inactive: ispinesib -0.041 | [7] 0.134

KHSRP (UniProt M0R3J3)
inactive: [6] 0.33

KRR1 (UniProt Q13601)
inactive: crizotinib -0.182 | gandotinib 0.028 | doramapimod 0.127 | [3] -0.028

KDM3A (UniProt Q9Y4C1)
inactive: [8] -0.073 | gandotinib -0.103 | [3] -0.004 | [9] 0.095

KIZ (UniProt Q2M2Z5)
inactive: crizotinib -0.032 | [8] -0.115 | gandotinib 0.063 | doramapimod 0.071 | ispinesib -0.047 | [3] 0.268 | [9] -0.446 | [7] 0.196 | tipifarnib 0.217

KIF1B isoform 3 (UniProt O60333)
inactive: mubritinib 0.168

JCHAIN (UniProt P01591)
inactive: bafetinib 0.669 | nilotinib -0.079 | [4] 0.146 | [5] 0.172 | mubritinib -0.178

KMT2E (UniProt Q8IZD2)
inactive: [6] 0.179 | [8] 0.171 | duvelisib 0.045 | [2] 0.072 | dasatinib -0.075 | [9] -0.006

KALRN (UniProt O60229)
inactive: [6] 0.217 | [8] -0.03 | bafetinib 0.044 | nilotinib -0.15 | [4] -0.061 | [5] 0.059 | [9] 0.118

ITSN2 (UniProt Q9NZM3)
inactive: gandotinib 0.225 | [3] -0.071

KLHL36 (UniProt Q8N4N3)
inactive: [6] 0.245 | nilotinib 0.125 | [4] -0.218 | [5] 0.312 | mubritinib 0.094
